# Data as given in PMC5996148.
# Some of the results follow.
# What was measured:
# Experiment in all cases: protein microarray (ProtoArray v5.0), streptavidin-Alexa Fluor 647
# Conditions in all cases: 3'-biotin; 20 mM Tris (pH 7.5), 5 mM MgCl2, 100 mM KCl, 0.1% Tween-20, A/T-rich and random oligonucleotide blockers; temperature not stated; high values mean tight binding
# TXN2 (human) = system: TXN2 (human)
# TXNDC1 (human) = system: TXNDC1 (human)
# TXNDC9 (human) = system: TXNDC9 (human)
# TXNL4A (human) = system: TXNL4A (human)
# TXNL4B (human) = system: TXNL4B (human)
# TYMS (human) = system: TYMS (human)
# TYW1 (human) = system: TYW1 (human)
# Tachykinin-3 (human) = system: Tachykinin-3 (human)
# Tafazzin (human) = system: Tafazzin (human)
# [1] = system: Taste receptor type 2 member 60 (human)
sequence,measurement,setting,value
GGGAGGCTGAGGCAGG [G4-1 biotinylated (PQS2)],binding signal,TXN2 (human),-0.346 z-score
same,binding signal,TXNDC1 (human),-0.338 z-score
same,binding signal,TXNDC9 (human),-0.348 z-score
same,binding signal,TXNL4A (human),-0.31 z-score
same,binding signal,TXNL4B (human),-0.334 z-score
same,binding signal,TYMS (human),-0.3 z-score
same,binding signal,TYW1 (human),-0.331 z-score
same,binding signal,Tachykinin-3 (human),-0.327 z-score
same,binding signal,Tafazzin (human),-0.283 z-score
same,binding signal,[1],-0.315 z-score

# As a working copy, some entries already given:
sequence,measurement,setting,value
GGGAGGCTGAGGCAGG [G4-1 biotinylated (PQS2)],binding signal,TYW1 (human),-0.331 z-score
same,binding signal,Tachykinin-3 (human),-0.327 z-score
